Laboratory results as given in patent US20250242340A1, “SABRE CATALYSTS CONTAINING FLUORINATED CARBON CHAINS FOR DELIVERY OF METAL-FREE MRI CONTRAST AGENTS” (The United States of America, as represented by the …, priority 2022, published 2025).

Conditions: 30 mM pyruvate, 2.6 mM catalyst, 40 mM DMSO, p-H2 70 scc/m, 100 PSI

CC(=O)C(=O)O [[1-^13C]pyruvate, Sodium [1-^13C]-pyruvate]
optimum mixing field (0 °C): 0.4 μT
optimum temperature of polarization transfer: −7.24 °C
